Measurements: PubChem BioAssay AID328 (DTP/NCI, 2004)
The list does not hold the whole screen: it is rich in T/C values a quarter to a half above the control, in often repeated tests (any T/C) and in doses without a T/C. Other doses and runs of a compound stand elsewhere. T/C gives the treated animals as a percentage of the vehicle group. Some doses have a count of surviving animals in place of a T/C: the source holds a T/C of zero for them, seemingly a mark for toxic or unscored doses. Some survivor counts are full or nearly so, which does not show that the dose was tolerated: the source hardly ever lists a survival T/C far under the control, and the zero likely stands for such cases as well. Survivors were counted at the toxicity check, usually on the fifth day, unless a day is given; later deaths do not show. Schedules are NCI's codes, read here as Q, the interval in days (D) or hours (H), X, the number of doses. Some structures stand for samples that the source files as different forms (salt, stereo form or complex); doses refer to the form tested. Where survival is the endpoint, this PubChem deposit counts one and a half times the control or more as active, and values a quarter to a half above the control carry no call in these data; other NCI protocols may use other cut-offs. Some entries were tested several times; their values stand side by side, smallest first. Some T/C values are followed by the survivors on the day toxicity was checked, most often the fifth; without a count, all were alive then.

Tested on: BDF1 mice, P388 leukemia ip, median survival T/C
Assay: NCI In Vivo Anticancer Drug Screen. Data for tumor model P388 Leukemia (intraperitoneal) in B6D2F1 (BDF1) mice
Conditions: T/C endpoint: median survival time, higher T/C = longer survival
Procedure, shortened: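 Transplantable tumour in mice; compound vs vehicle dosing; survival scored; ratio of treated to control reported.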

[1] = dose: 50.0 mg/kg/injection, schedule: Q01DX009 (ip), vehicle: acetone
[2] = dose: 100.0 mg/kg/injection, schedule: Q01DX009 (ip), vehicle: saline with Tween-80
[3] = dose: 200.0 mg/kg/injection, schedule: Q01DX009 (ip), vehicle: saline
[4] = dose: 400.0 mg/kg/injection, schedule: Q01DX009 (ip), vehicle: saline
[5] = dose: 200.0 mg/kg/injection, schedule: Q04DX003 (ip), vehicle: saline
[6] = dose: 400.0 mg/kg/injection, schedule: Q04DX003 (ip), vehicle: saline
[7] = dose: 200.0 mg/kg/injection, schedule: Q01DX009 (ip), vehicle: saline with Tween-80
[8] = dose: 50.0 mg/kg/injection, schedule: Q01DX009 (ip), vehicle: saline with Tween-80
[9] = dose: 12.5 mg/kg/injection, schedule: Q01DX009 (ip), vehicle: saline
[10] = dose: 25.0 mg/kg/injection, schedule: Q01DX009 (ip), vehicle: saline
[11] = dose: 100.0 mg/kg/injection, schedule: Q01DX009 (ip), vehicle: saline

How did the survivor count (dose: 10.0 mg/kg/injection, schedule: Q01DX010 (ip), vehicle: carboxymethylcellulose (CMC)) turn out when `CC1OC(O[C@@H]2C=C3CC[C@@H]4[C@H](CC[C@]5(C)[C@@H](c6ccc(=O)oc6)CC[C@]45O)[C@@]3(C)CC2)C(O)C(O)C1O` (some centres undefined) was run?
The survivor count was 1 of 6.

Which results are given for `OCC1OC(n2cnc3c(SCc4ccccc4)nc(NO)nc32)C(O)C1O` (centres undefined)?
T/C [1]: 136 % of control; T/C (dose: 100.0 mg/kg/injection, schedule: Q01DX009 (ip), vehicle: acetone): 142 % of control

`CC(C)NCC(O)COc1ccc(OCc2ccccc2)c(OCc2ccccc2)c1` (centres undefined) was tested. Which survivor count [2] did it give?
The survivor count was 5 of 6.

With `CCOc1ccc(C(/C(Cl)=N/O)C(Cl)(Cl)Cl)cc1` (centres undefined) as the molecule, how does the T/C (dose: 12.5 mg/kg/injection, schedule: Q01DX009 (ip), vehicle: acetone) read?
Its T/C is 136 % of control.

And the T/C (dose: 25.0 mg/kg/injection, schedule: Q01DX009 (ip), vehicle: acetone)?
The T/C was 147 % of control.

And the survivor count [1]?
Its survivor count is 5 of 6.

What about the survivor count (dose: 180.0 mg/kg/injection, schedule: Q04DX003 (ip), vehicle: Klucel (hydroxypropylcellulose) (HPC)) of the same molecule?
The survivor count was 6 of 6.

Which T/C (dose: 50.0 mg/kg/injection, schedule: Q01DX001 (ip), vehicle: saline with Tween-80) does the source give for `Cn1c(=O)n(C)c2ccccc21` here?
Its T/C is 127 % of control.

What does the source list for `CN(C)C=O.CN(C)C=O.[Cl][Sn]([Cl])([Cl])[Cl]`?
survivor count (dose: 150.0 mg/kg/injection, schedule: Q01DX009 (ip), vehicle: Klucel (hydroxypropylcellulose) (HPC)): 5 of 6; survivor count (dose: 225.0 mg/kg/injection, schedule: Q01DX009 (ip), vehicle: Klucel (hydroxypropylcellulose) (HPC)): 2 of 6; survivor count (dose: 300.0 mg/kg/injection, schedule: Q04DX003 (ip), vehicle: Klucel (hydroxypropylcellulose) (HPC)): 2 of 6; survivor count (dose: 335.0 mg/kg/injection, schedule: Q01DX009 (ip), vehicle: Klucel (hydroxypropylcellulose) (HPC)): 0 of 6

With `O=C(/C=C/c1cccc2ccccc12)c1ccc(Cl)cc1` as the molecule, how does the survivor count (dose: 400.0 mg/kg/injection, schedule: Q01DX009 (ip), vehicle: Klucel (hydroxypropylcellulose) (HPC)) read?
Its survivor count is 0 of 6.

`COc1ccc(OC)c2c1C(=O)CC2C` (centres undefined) was tested. Which survivor count [3] did it give?
Its survivor count is 6 of 6.

And the survivor count [4]?
The survivor count was 5 of 6.

With `C=CC[Se]c1nc(N)nc2c1ncn2C1OC(CO)C(O)C1O` (centres undefined) as the molecule, how does the survivor count [5] read?
The survivor count was 1 of 6.

What about the survivor count [6] of the same molecule?
Its survivor count is 0 of 6.

`CCOC(=O)COc1ccc(/C=C(\C)[N+](=O)[O-])c2ccccc12` was tested. Which T/C [2] did it give?
Its T/C is 130 % of control.

What about the T/C [7] of the same molecule?
The T/C was 135 % of control.

With `CCOC(=O)C/C(C)=N\NC(=O)c1ccncc1` as the molecule, how does the survivor count (dose: 37.5 mg/kg/injection, schedule: Q01DX009 (ip), vehicle: saline with Tween-80) read?
Its survivor count is 7 of 7.

With `CN(C)c1ccc(N=Nc2ccc([As](=O)(O)O)cc2)cc1` as the molecule, how does the survivor count (dose: 5.0 mg/kg/injection, schedule: Q04DX003 (ip), vehicle: saline with Tween-80) read?
Its survivor count is 5 of 6.

What about the survivor count (dose: 10.0 mg/kg/injection, schedule: Q04DX003 (ip), vehicle: saline with Tween-80) of the same molecule?
The survivor count was 5 of 6.

And the survivor count (dose: 20.0 mg/kg/injection, schedule: Q04DX003 (ip), vehicle: saline with Tween-80)?
The survivor count was 4 of 6.

With `NC(=O)/C=C/C(=O)c1c(Cl)cccc1Cl` as the molecule, how does the T/C (dose: 3.13 mg/kg/injection, schedule: Q01DX009 (ip), vehicle: saline with Tween-80) read?
The T/C was 145 % of control.

What about the survivor count [8] of the same molecule?
Its survivor count is 5 of 6.

What about the survivor count [2] of the same molecule?
The survivor count was 0 of 6.

What about the survivor count [7] of the same molecule?
The survivor count was 0 of 6.

For `COC(C(=O)C(O)C(C)O)C1Cc2cc3cc(OC4CC(OC5CC(O)C(O)C(C)O5)C(O)C(C)O4)c(C)c(O)c3c(O)c2C(=O)C1OC1CC(OC2CC(O)C(OC3CC(C)(O)C(O)C(C)O3)C(C)O2)C(O)C(C)O1` (centres undefined), which T/C (dose: 0.13 mg/kg/injection, schedule: Q01DX009 (ip), vehicle: saline) is on record?
Its T/C is 129 and 130 % of control.

What about the T/C (dose: 0.25 mg/kg/injection, schedule: Q01DX009 (ip), vehicle: saline) of the same molecule?
The T/C was 134 % of control.

And the T/C (dose: 0.5 mg/kg/injection, schedule: Q01DX009 (ip), vehicle: saline)?
Its T/C is 136 % of control.

What about the T/C (dose: 1.0 mg/kg/injection, schedule: Q01DX009 (ip), vehicle: saline) of the same molecule?
The T/C was 127 % of control [2 of 3 alive].

And the T/C (dose: 1.0 mg/kg/injection, schedule: Q04DX003 (ip), vehicle: saline)?
The T/C was 142 % of control.

What about the survivor count (dose: 2.0 mg/kg/injection, schedule: Q01DX009 (ip), vehicle: saline) of the same molecule?
The survivor count was 3 of 3.

What about the T/C (dose: 2.0 mg/kg/injection, schedule: Q04DX003 (ip), vehicle: saline) of the same molecule?
The T/C was 125 % of control [7 of 10 alive].

How did the survivor count (dose: 400.0 mg/kg/injection, schedule: Q01DX009 (ip), vehicle: saline with Tween-80) turn out when `Nc1c(Br)cc2c(c1Br)Cc1cc(Br)ccc1-2` was run?
The survivor count was 6 of 6.

For `Cc1cc(C)nc(NS(=O)(=O)c2ccc(N=Nc3nc4[nH]c(N)nc(=S)c4[nH]3)cc2)n1`, which survivor count (dose: 12.5 mg/kg/injection, schedule: Q01DX009 (ip), vehicle: Klucel (hydroxypropylcellulose) (HPC)) is on record?
Its survivor count is 6 of 6.

And the survivor count (dose: 25.0 mg/kg/injection, schedule: Q01DX009 (ip), vehicle: Klucel (hydroxypropylcellulose) (HPC))?
Its survivor count is 4 of 6.

And the survivor count (dose: 50.0 mg/kg/injection, schedule: Q01DX009 (ip), vehicle: Klucel (hydroxypropylcellulose) (HPC))?
Its survivor count is 6 of 6.

And the survivor count (dose: 100.0 mg/kg/injection, schedule: Q01DX009 (ip), vehicle: Klucel (hydroxypropylcellulose) (HPC))?
The survivor count was 5 of 6.

What about the survivor count (dose: 200.0 mg/kg/injection, schedule: Q01DX009 (ip), vehicle: Klucel (hydroxypropylcellulose) (HPC)) of the same molecule?
Its survivor count is 2 of 6.

How did the survivor count (dose: 200.0 mg/kg/injection, schedule: Q01DX001 (ip), vehicle: other) turn out when `CC(=O)OC(C)(C)c1ccccc1[S+]1OC(C)(C)c2ccccc21` (centres undefined) was run?
The survivor count was 0 of 6.

And the survivor count (dose: 400.0 mg/kg/injection, schedule: Q01DX001 (ip), vehicle: other)?
Its survivor count is 0 of 6.

How did the survivor count (dose: 200.0 mg/kg/injection, schedule: Q04DX003 (ip), vehicle: Klucel (hydroxypropylcellulose) (HPC)) turn out when `O=C(O)c1ccccc1C(=O)Nc1cc(Cl)ccc1Cl` was run?
Its survivor count is 6 of 6.

Which T/C (dose: 2.2 mg/kg/injection, schedule: Q04DX003 (ip), vehicle: saline) does the source give for `C[n+]1cccc(NC(=O)c2ccc(NC(=O)c3ccc(C(=O)Nc4ccc(NC(=N)N)cc4)cc3)cc2)c1` here?
Its T/C is 145 % of control.

Which survivor count [7] does the source give for `CCOC(=O)/C(=C(/N)C1OC(COC(c2ccccc2)(c2ccccc2)c2ccccc2)C2OC(C)(C)OC12)C1CC(=O)N(C)C1=O` (centres undefined) here?
Its survivor count is 6 of 6.

For `CC(Br)C(=O)NCC(=O)NCC(=O)O` (centres undefined), which survivor count [4] is on record?
Its survivor count is 6 of 6.

How did the survivor count (dose: 118.5 mg/kg/injection, schedule: Q01DX009 (ip), vehicle: Klucel (hydroxypropylcellulose) (HPC)) turn out when `Nc1ncnc2c1nnn2C1OC(CO)C(O)C1O` (centres undefined) was run?
Its survivor count is 10 of 10.

For `COc1ccc2[nH]c(=O)c(C)c(C)c2c1`, which survivor count [9] is on record?
Its survivor count is 6 of 6.

What about the survivor count [10] of the same molecule?
Its survivor count is 6 of 6.

What about the survivor count [11] of the same molecule?
Its survivor count is 6 of 6.

And the survivor count [3]?
Its survivor count is 6 of 6.

And the survivor count [4]?
Its survivor count is 6 of 6.

Which survivor count (dose: 3.13 mg/kg/injection, schedule: Q01DX009 (ip), vehicle: saline sonified) does the source give for `COC1=C(C)C(=O)c2c(c(COC(N)=O)c3n2CC2C3N2C)C1=O` (centres undefined) here?
Its survivor count is 6 of 6.

And the survivor count (dose: 4.6 mg/kg/injection, schedule: Q01DX009 (ip), vehicle: saline sonified)?
Its survivor count is 6 of 6.

Which survivor count [8] does the source give for `O=C1NNC(c2ccccc2)C1(Cl)Cl` (centres undefined) here?
The survivor count was 4 of 6.

`O=c1cc[nH]c2cc(C(F)(F)F)ccc12` was tested. Which survivor count (dose: 400.0 mg/kg/injection, schedule: Q04DX003 (ip), vehicle: saline sonified) did it give?
Its survivor count is 2 of 6.

What does the source list for `CCN(CC)CCNc1ccc(C)c2sc3ccccc3c(=O)c12` (tested in a mixture with another compound)?
T/C [9]: 130 % of control; T/C [10]: 125 % of control; T/C (dose: 33.0 mg/kg/injection, schedule: Q01DX009 (ip), vehicle: saline): 131 % of control; T/C (dose: 50.0 mg/kg/injection, schedule: Q01DX009 (ip), vehicle: saline): 130 [5 of 6 alive] and 140 % of control; T/C (dose: 75.0 mg/kg/injection, schedule: Q01DX009 (ip), vehicle: saline): 145 % of control; survivor count [11]: 5 of 6; T/C (dose: 132.0 mg/kg/injection, schedule: Q04DX003 (ip), vehicle: saline): 127 % of control; survivor count [3]: 6 of 6; T/C [5]: 127 % of control; survivor count [4]: 1 of 6; survivor count [6]: 4 of 6

Which T/C (dose: 50.0 mg/kg/injection, schedule: Q04DX003 (ip), vehicle: saline) does the source give for `Cn1cnc([N+](=O)[O-])c1[Se]c1ncnc2c1c(C#N)cn2C1OC(CO)C(O)C1O` (centres undefined) here?
The T/C was 130 % of control.
